Values quoted from earlier work, collected in patent US12465589B2, “Method and composition for treating CNS disorders” (IGC Pharma IP, LLC, priority 2018, dated 2025).
At least one compound was matched to its structure with a doubt left.

Test system: GSK-3
Conditions: chronic usage, transgenic mice overexpressing GSK-3β and tau

Compound: [Li] [lithium]
- tau hyperphosphorylation and neurofibrillary tangle formation: check tau hyperphosphorylation and neurofibrillary tangle formation
